At least one read-out could not be matched to a standard name with certainty.
Test system: gray mold pathogen (Botrytis cinerea)
Assay: Gray mold antimicrobial test (growth inhibition rate)
Assay type: cell-based
Set-up: concentration or dose not given beside the values
Protocol: (Test Example) Gray Mold Antimicrobial Test (Growth Inhibition Rate)
Conidiospores of a gray mold pathogen (Botrytis cinerea) were added to and dispersed in a yeast extract sucrose medium, and a component (I) and a component (II) dissolved in dimethyl sulfoxide at predetermined concentrations were further added and mixed thereto, and the resulting solution was dispensed onto a 96-well microplate and cultivated in the dark at 20° C. for 3 to 5 days. After the cultivation, the turbidity at a wavelength of 405 nm was measured by a microplate reader and compared with that in the untreated case to determine the growth inhibition rate (%) for the gray mold pathogen. The test was duplicately carried out. The results are shown in Tables 3 to 7 together with expected values calculated as follows.
Expected values were calculated by using Colby's equation: E=M+N−MN/100. Here, E denotes an expected value (%) of a growth inhibition rate, M denotes a growth inhibition rate (%) in using a component (I) alone, and N denotes a growth inhibition rate (%) in using a component (II) alone.
If the actually measured growth inhibition rate (%) of a composition of a component (I) and a component (II) is higher than the expected value, E, the composition of a component (I) and a component (II) is said to have exerted synergistic effect.

In the case of `N#Cc1c[nH]cc1-c1cccc2c1OC(F)(F)O2` [Fludioxonil], the “growth inhibition rate, component (II) alone” value (from here on “growth inhibition rate”) (Table 3, ppm: Ipflufenoquin 10, Cyflufenamid 10, Thiophamate-methyl 0.4, Iminoctadine acetate 0.08, Iminoctadine albesilate 0.08, Triflumizole 0.0032, Picarbutrazox 0.08, Prothioconazole 0.0032, Mefentrifluconazole 0.00064, Cymoxanil 10, Fludioxonil 0.016, Metyltetraprole 0.4, Florylpicoxamid 0.08, Fluxapyroxad 0.08, Fluopyram 0.4, Potassium phosphite 10, Fipronil 2, Chlorantraniliprole 0.016, Aba) is reported as 0%, the “growth inhibition rate” value (Table 4, ppm: Ipflufenoquin 10, Cyflufenamid 2, Thiophamate-methyl 0.4, Iminoctadine acetate 0.08, Iminoctadine albesilate 0.4, Picarbutrazox 10, Prothioconazole 0.0032, Mefentrifluconazole 0.0006, Cymoxanil 10, Fludioxonil 0.016, Metyltetraprole 10, Fluxapyroxad 0.016, Fluopyram 0.4, Potassium phosphite 10, Fipronil 2, Chlorantraniliprole 0.016, Abamectin 0.016, Sulfoxaflor 10, Tebufenozide 0.016) is reported as 0% and the “growth inhibition rate” value (Table 5, ppm: Ipflufenoquin 10, Cyflufenamid 10, Thiophamate-methyl 0.4, Iminoctadine albesilate 0.4, Picarbutrazox 0.0032, Mefentrifluconazole 0.0006, Cymoxanil 10, Captan 0.0032, Fludioxonil 0.016, Metyltetraprole 10, Florylpicoxamid 0.0001, Fluxapyroxad 0.016, Fluopyram 0.0032, Potassium phosphite 0.08, Fipronil 2, Chlorantraniliprole 0.016, Abamectin 0.4, Sulfoxaflor 0.4, Tebufenozide 10) is reported as 0%. For the same compound, the “growth inhibition rate” value (Table 6, ppm: Ipflufenoquin 10, Cyflufenamid 0.08, Thiophamate-methyl 2, Triflumizole 0.08, Picarbutrazox 0.0016, Prothioconazole 0.0006, Mefentrifluconazole 0.08, Cymoxanil 0.08, Captan 0.08, Fludioxonil 0.016, Metyltetraprole 10, Florylpicoxamid 0.0006, Fluxapyroxad 0.0032, Fluopyram 0.016, Potassium phosphite 0.016, Fipronil 10, Chlorantraniliprole 0.08, Abamectin 2, Sulfoxaflor 0.08, Tebufenoz) was 14% and the “growth inhibition rate” value (Table 7, ppm: Ipflufenoquin 0.08, Cyflufenamid 0.08, Thiophamate-methyl 2, Iminoctadine acetate 0.0001, Iminoctadine albesilate 0.4, Triflumizole 0.4, Prothioconazole 0.0032, Mefentrifluconazole 0.08, Cymoxanil 0.08, Captan 0.08, Fludioxonil 0.08, Metyltetraprole 0.0032, Florylpicoxamid 0.0006, Fluxapyroxad 0.016, Fluopyram 0.0032, Potassium phosphite 0.016, Fipronil 2, Chlorantraniliprole 0.016) was 7%.

Reference: patent US20240260575A1, “AGRICULTURAL AND HORTICULTURAL FUNGICIDAL COMPOSITION” (Nippon Soda Co., Ltd., priority 2021, published 2024)
